Results published in patent US7005413 (Amgen, dated 2006).
These are yes or no findings as the source states them, for the method shown. Some binding calls cover weakened binding; strength is not graded here.

Tests used:
muOPG [22-401] (mouse) [1] = molecular target: muOPG [22-401] (mouse) (UniProt O08712); assay: self-association; nonreducing SDS gels
muOPG [22-401] (mouse) [2] = molecular target: muOPG [22-401] (mouse) (UniProt O08712); assay: self-association of purified monomer on storage; SDS-PAGE
muOPG [22-401] (mouse) [3] = molecular target: muOPG [22-401] (mouse) (UniProt O08712); assay: self-association; 35S pulse-chase, immunoprecipitation, non-reducing SDS-PAGE
muOPG [22-401] (mouse) [4] = molecular target: muOPG [22-401] (mouse) (UniProt O08712); assay: self-association; reducing vs non-reducing SDS-PAGE and western blot of CHO conditioned media
muOPG [22-355] (mouse) = muOPG [22-355] (mouse) (UniProt O08712); assay: homodimerization; non-reducing SDS-PAGE and western blot
muOPG [22-293] (mouse) = muOPG [22-293] (mouse) (UniProt O08712); assay: as above
[5] = molecular target: OPG expressed as a naturally occurring product from the CTLL-2 murine cytotoxic T lymphocytic cell line (mouse) (UniProt O08712); assay: self-association; nonreducing SDS gels
[6] = molecular target: OPG expressed as a naturally occurring product from the CTLL-2 murine cytotoxic T lymphocytic cell line (mouse) (UniProt O08712); assay: self-association; non-reducing SDS-PAGE and western blot of CTLL-2 conditioned media

B1: muOPG [22-401] (receptor)
chain: ETLLPKYLHYDPETGHQLLCDKCAPGTYLKQHCTVRRKTLCVPCPDHSYTDSWHTSDECVYCSPVCKELQSVKQECNRTHNRVCECEEGRYLEIEFCLKHRSCPPGSGVVQAGTPERNTVCKKCPDGFFSGETSSKAPCIKHTNCSTFGLLLIQKGNATHDNCCSGNREATQKCGIDVTLCEEAFFRFAVPTKIIPNWLSVLVDSLPGTKVNAESVERIKRRHSSQEQTFQLLKLWKHQNRDQEMVKKIIQDIDLCESSVQRHLGHSNLTTEQLLALMESLPGKKISPEEIERTRKTCKSSEQLLKLLSLWRIKNGDQDTLKGLMYALKHLKTSHFPKTVTHSLRKTMRFLHSFTMYRLYQKLFLEMIGNQVQSVKISCL
For B1, the binding (muOPG [22-401] (mouse) [1]) was “binds”, the binding (muOPG [22-401] (mouse) [2]) was “binds” and the binding (muOPG [22-401] (mouse) [3]) was “binds”. For the same binder, the binding (muOPG [22-401] (mouse) [4]) was “binds”.

B2: muOPG [22-355] (receptor)
chain: ETLLPKYLHYDPETGHQLLCDKCAPGTYLKQHCTVRRKTLCVPCPDHSYTDSWHTSDECVYCSPVCKELQSVKQECNRTHNRVCECEEGRYLEIEFCLKHRSCPPGSGVVQAGTPERNTVCKKCPDGFFSGETSSKAPCIKHTNCSTFGLLLIQKGNATHDNCCSGNREATQKCGIDVTLCEEAFFRFAVPTKIIPNWLSVLVDSLPGTKVNAESVERIKRRHSSQEQTFQLLKLWKHQNRDQEMVKKIIQDIDLCESSVQRHLGHSNLTTEQLLALMESLPGKKISPEEIERTRKTCKSSEQLLKLLSLWRIKNGDQDTLKGLMYALKHLKTS
With B2 the binding (muOPG [22-355] (mouse)) was “binds”.

B3: muOPG [22-293] (receptor)
chain: ETLLPKYLHYDPETGHQLLCDKCAPGTYLKQHCTVRRKTLCVPCPDHSYTDSWHTSDECVYCSPVCKELQSVKQECNRTHNRVCECEEGRYLEIEFCLKHRSCPPGSGVVQAGTPERNTVCKKCPDGFFSGETSSKAPCIKHTNCSTFGLLLIQKGNATHDNCCSGNREATQKCGIDVTLCEEAFFRFAVPTKIIPNWLSVLVDSLPGTKVNAESVERIKRRHSSQEQTFQLLKLWKHQNRDQEMVKKIIQDIDLCESSVQRHLGHSNLTTE
B3 was tested, and the binding (muOPG [22-293] (mouse)) was “binds”.

B4: OPG expressed as a naturally occurring product from the CTLL-2 murine cytotoxic T lymphocytic cell line (receptor)
chain: ETLLPKYLHYDPETGHQLLCDKCAPGTYLKQHCTVRRKTLCVPCPDHSYTDSWHTSDECVYCSPVCKELQSVKQECNRTHNRVCECEEGRYLEIEFCLKHRSCPPGSGVVQAGTPERNTVCKKCPDGFFSGETSSKAPCIKHTNCSTFGLLLIQKGNATHDNCCSGNREATQKCGIDVTLCEEAFFRFAVPTKIIPNWLSVLVDSLPGTKVNAESVERIKRRHSSQEQTFQLLKLWKHQNRDQEMVKKIIQDIDLCESSVQRHLGHSNLTTEQLLALMESLPGKKISPEEIERTRKTCKSSEQLLKLLSLWRIKNGDQDTLKGLMYALKHLKTSHFPKTVTHSLRKTMRFLHSFTMYRLYQKLFLEMIGNQVQSVKISCL
In the case of B4, the binding [5] is reported as “binds” and the binding [6] is reported as “binds”.
